The values that follow come from patent US20250002534A1.

Amino acid sequences for entries named in this document (tags omitted).
UniProt O43813: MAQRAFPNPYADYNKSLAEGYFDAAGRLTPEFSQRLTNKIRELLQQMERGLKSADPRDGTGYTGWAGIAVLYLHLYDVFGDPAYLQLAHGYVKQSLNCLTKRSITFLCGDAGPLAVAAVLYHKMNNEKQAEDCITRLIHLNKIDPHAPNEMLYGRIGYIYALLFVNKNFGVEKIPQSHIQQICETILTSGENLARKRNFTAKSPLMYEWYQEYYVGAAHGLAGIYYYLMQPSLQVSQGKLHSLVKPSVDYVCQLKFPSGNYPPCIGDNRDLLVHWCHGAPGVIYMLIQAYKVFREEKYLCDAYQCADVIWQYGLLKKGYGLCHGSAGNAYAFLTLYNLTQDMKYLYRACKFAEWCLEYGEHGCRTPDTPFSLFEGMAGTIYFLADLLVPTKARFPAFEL

These are yes or no findings as the source states them, for the method shown. Some entries that bind do so weakly or less than the wild type.

For the assay, the target named is recombinant LanCL1 (Lanthionine synthetase C-like protein 1) (UniProt O43813). Nature of the assay: photoprobe displacement from rLanCL1, in-gel fluorescence.

B1: peptide of SEQ ID NO:1, … (peptide)
peptide: YLRIVQCRSVEGSCGF
modifications: cyclised by a disulphide bond between the two cysteine residues
Turning to B1, the binding result was “binds”.

B2: cyclized peptide of SEQ ID NO:40, CRALNSSC (peptide)
peptide: CRALNSSC
modifications: cyclised by a disulphide bond between the two cysteine residues
Turning to B2, the binding result was “binds”.

B3: cyclized peptide of SEQ ID NO:38, … (peptide)
peptide: CQEQLERALNSSC
modifications: cyclized by a disulphide bond between the two cysteine residues
B3: the binding result was “binds”.
